Measured values as given in publication PMC4712816.
These are yes or no findings as the source states them, for the method shown. In cells and extracts the contact can be indirect. Some binding calls cover weakened binding; strength is not graded here. Where a sequence is shown, tags or fusion partners need not be part of it.

Biological target: T1, DC-STAMP tagged with HA at the C-terminus (DC-STAMP–HA), full length (murine) (UniProt Q7TNJ0)
T1 sequence: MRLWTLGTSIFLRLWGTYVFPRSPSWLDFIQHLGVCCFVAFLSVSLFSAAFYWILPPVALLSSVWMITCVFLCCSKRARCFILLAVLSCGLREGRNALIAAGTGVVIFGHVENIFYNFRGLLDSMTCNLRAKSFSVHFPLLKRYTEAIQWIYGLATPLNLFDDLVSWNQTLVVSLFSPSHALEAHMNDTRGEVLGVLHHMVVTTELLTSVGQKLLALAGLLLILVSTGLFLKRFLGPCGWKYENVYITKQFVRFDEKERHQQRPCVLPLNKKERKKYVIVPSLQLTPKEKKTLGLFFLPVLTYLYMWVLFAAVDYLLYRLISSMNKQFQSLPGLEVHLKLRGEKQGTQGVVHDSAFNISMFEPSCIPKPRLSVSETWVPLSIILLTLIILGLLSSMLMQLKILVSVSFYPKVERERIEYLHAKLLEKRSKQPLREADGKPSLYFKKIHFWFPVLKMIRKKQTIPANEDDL
Test: co-IP; HeLa cells co-transfected with FLAG–Luman and DC-STAMP–HA plasmids, harvested 24 h after transfection, lysed with SDS lysis buffer; IP with anti-HA rabbit monoclonal antibodies and rProteinG agarose, washed five times with TBS; western blot with anti-FLAG or anti-HA

binding: binds
B1: Luman tagged with FLAG at the N-terminus (FLAG–Luman) (protein, UniProt Q61817 1-404)
chain: MDPGGQDLLALDPGDQDLLGFLLEESGDLWAATEPDVKASLDLELSPSENSVQELSDWEVEDLLSSLLSPSVSRDVLGSSSSSILHDHNYSLPQEHVSIDLGECEMISCRGRRELTGLAGSTFPFADTESFEKEGFHVTPLPGEERAAEQEMSRLILTEEEKKLLEKEGLTLPSTLPLTKVEEQVLKRVRRKIRNKRAAQESRKKKKVYVVGLESRVLKYTAQNRELQNKVQRLEEQNLSLLDQLRKLQAMVIEIANKTSSGSTCVLVLVFSFCLLLVPAMYSSDARGSVPAEYVVLHRKLRALPSEDDHQPKPSALSSELPMDSTHQSLDSSEHMFLVSSNFSCVLYHAPQAEQPLHWPLWDLSSEMLFSDSNLLLQANLSESEGWQPNHSPSLVIFQGRYSG
